# According to PubChem BioAssay AID1259415 (National Center for Advancing Translational Sciences (NCATS), 2018):
# The campaign covered roughly 410,000 compounds. About 18,000 (4.4%) were called active. Inconclusive means that the source gave no clear call. Such entries were picked first, then a sample of the others. Cut-off read from the data, not from the text of the source: active = activity change below about -60%; inconclusive = no clear call, values can overlap the other calls; inactive = above about -39%.
# Test: qHTS Assay for inhibitors of the human cytomegalovirus (HCMV)
# Conditions: HFF cells, HCMV-luciferase reporter, 72 h; at 57.5 µM; stronger effect = lower value
# Procedure, shortened: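 Inhibition of viral replication was scored as loss of reporter luminescence in HFFs infected with HCMV-luciferase (MOI 1 PFU/cell) for 72 h; compounds tested at 2 doses, normalized to buffer and Salinomycin controls.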
# % is set by controls: 0 for no effect and ±100 for the full control effect.
row,SMILES,"activity change, negative = inhibition"
1,Cc1ccc(C)c2sc(NC(=O)c3ccc(S(=O)(=O)N4CCC(C)CC4)cc3)nc12,inconclusive: -40.9%
2,S=C(Nc1cccc2ccccc12)NN1CCCCCC1,active: -62.5%
3,Cc1cc(C(=O)Nc2ccc(Nc3ccccc3)cc2)ccc1[N+](=O)[O-],inactive: -21.2%
4,COc1ccc(C)cc1C1=Nc2ccccc2C1(C)C,inconclusive: -50.1%
5,N#Cc1ccc(C(=O)Nc2ccc([N+](=O)[O-])cc2)c(F)c1,inconclusive: -44.9%
6,COc1ccc(NS(=O)(=O)c2cc(NC(=O)c3ccc(Cl)cc3)ccc2N2CCOCC2)cc1,inconclusive: -43.1%
7,COc1cccc(-n2nnnc2SCC(=O)Nc2ccccc2OC)c1,inactive: 18.9%
8,COc1ccc(C2CC(=O)c3cc(OC)ccc3O2)cc1 (stereo unspecified),inactive: 21.1%
9,Cc1cc(NC(=O)c2cccc(Br)c2)n[nH]1,inactive: 29.5%
10,Cc1cc(OCC(=O)Nc2ccccc2N2CCCC2)ccc1C(C)C,inconclusive: -42.9%
11,O=[N+]([O-])c1cc2c(cc1/C=N/n1c(-c3ccccc3)n[nH]c1=S)OCO2,active: -100%
12,O=S(=O)(NCc1cn2ccsc2n1)c1cccs1,inactive: -31.3%
13,O=S(N1CCc2ccccc21)C12CC3CC(CC(C3)C1)C2 (stereo unspecified),inconclusive: -43.6%
14,CN(Cc1ccccc1)C(=O)c1cn(C)c2ccc(S(=O)(=O)N3CCCCC3)cc2c1=O,inactive: -4.78%
15,Cc1cc(OCCCCCn2ccnc2)cc(C)c1Cl,inconclusive: -49.7%
16,NC(=O)c1sc2nc3c(c(-c4ccccc4)c2c1N)CCC3,active: -93.9%
17,Cc1cccc(-n2ncc3c2CCCC3NC(=O)c2cccs2)c1C (stereo unspecified),active: -75.2%
18,Cc1ccc(Cn2c(C(=O)O)c(CNCc3ccc(OC(C)C)cc3)c3ccc(C)cc32)cc1,active: -105%
19,CCN(c1ccccc1)S(=O)(=O)c1ccc(NC(=O)c2nc(SC)ncc2Cl)cc1,active: -86.3%
20,CCCOc1ccc(C(O)(CCN2CCCCC2)c2ccccc2OC)cc1 (stereo unspecified),inconclusive: -40.1%
21,Cc1cc(C(=O)COc2cccnc2[N+](=O)[O-])c(C)n1-c1ccccc1F,active: -97.3%
22,O=C(NC(NC(=S)Nc1ccccc1)C(Cl)(Cl)Cl)c1cccc(Cl)c1 (stereo unspecified),active: -78.5%

row,SMILES,"activity change, negative = inhibition"
1,Cc1cccc(-n2c(SCC(=O)Nc3ncc(Cl)cc3Cl)nc3ccccc32)c1,active: -99.3%
2,O=C(C[n+]1ccc(-c2cc(C(=O)Nc3cccc(C(F)(F)F)c3)c3ccccc3n2)cc1)c1cccc([N+](=O)[O-])c1,active: -66.3%
3,Cc1ccc(/C=C2\SC(=S)N(Cc3ccccc3)C2=O)o1,inconclusive: -48.5%
4,Cc1ccc(N2CC(c3nc4ccccc4n3C)CC2=O)cc1C (stereo unspecified),inconclusive: -42.3%
5,CCOc1ccccc1NC(=O)CN1C(=O)COc2ccc(S(=O)(=O)N3CCOCC3)cc21,inconclusive: -43.2%
6,CCN(Cc1nc2ccccc2c(=O)[nH]1)C(=O)c1cccc(OCc2c(C)noc2C)c1,active: -99.6%
7,CCC(C(=O)NC1CCCCCC1)c1ccccc1 (stereo unspecified),inconclusive: -49%
8,COCCCNC(=O)c1cccc2c(-c3ccc(OC)cc3C)coc12,inconclusive: -49.1%
9,CCOc1ccccc1C(=O)N(Cc1ccco1)Cc1ccco1,inconclusive: -54.7%
10,CCN(CC)c1ccc(NS(=O)(=O)c2ccc3c(c2)oc(=O)n3C)c(C)c1,inconclusive: -43.9%
11,CCCC(c1nnnn1C1CCCC1)N1CCN(C(=O)c2ccco2)CC1 (stereo unspecified),inconclusive: -47%
12,O=S(=O)(Nc1ccc2c3c(cccc13)CC2)c1ccc(F)cc1,active: -61.1%
13,CC(=O)Nc1ccc(C(=O)NC(CC(=O)O)c2ccc(Cl)cc2)cc1 (stereo unspecified),inactive: 25.2%
14,N#Cc1c(N)nc(SCc2ccncc2)c(C#N)c1-c1cccs1,inconclusive: -47%
15,CCOC(=O)c1ccc(N2C(=O)c3[nH]nc(-c4ccccc4)c3C2c2ccc(CC)cc2)cc1 (stereo unspecified),active: -105%
16,O=C(CCN1C(=O)/C(=C\C=C\c2ccccc2)SC1=S)Nc1ccccc1C(=O)O,inconclusive: -53.8%
17,COc1ccccc1N1CCN(c2nc3c(C)cccn3c(=O)c2C=O)CC1,inconclusive: -41.2%
18,Cc1c(C(=O)NCc2ccc(Cl)c(Cl)c2)sc(=O)n1Cc1ccc(C(=O)N(C)C)cc1,active: -68.6%
19,COc1ccc(-c2cn[nH]c2-c2ccc(OC)cc2)cc1,inconclusive: -43.1%
20,O=C(NC1CC(=O)N(c2ccc(F)cc2)C1)c1ccc(S(=O)(=O)N2CCCCC2)cc1 (stereo unspecified),inconclusive: -46.6%
21,N#CC1=C(N)Oc2c(c(=O)oc3ccccc23)C1c1cccnc1 (stereo unspecified),inconclusive: -40.3%
22,Cc1ccc(N(C(=O)CNC(=O)c2ccco2)C(C(=O)NC2CCCCC2)c2ccncc2)c(C)c1 (stereo unspecified),inactive: 5.61%

# 16 entries already listed, arranged by number of heavy atoms, largest number first:
row,SMILES,"activity change, negative = inhibition"
2,O=C(C[n+]1ccc(-c2cc(C(=O)Nc3cccc(C(F)(F)F)c3)c3ccccc3n2)cc1)c1cccc([N+](=O)[O-])c1,active: -66.3%
22,Cc1ccc(N(C(=O)CNC(=O)c2ccco2)C(C(=O)NC2CCCCC2)c2ccncc2)c(C)c1 (stereo unspecified),inactive: 5.61%
15,CCOC(=O)c1ccc(N2C(=O)c3[nH]nc(-c4ccccc4)c3C2c2ccc(CC)cc2)cc1 (stereo unspecified),active: -105%
5,CCOc1ccccc1NC(=O)CN1C(=O)COc2ccc(S(=O)(=O)N3CCOCC3)cc21,inconclusive: -43.2%
6,CCN(Cc1nc2ccccc2c(=O)[nH]1)C(=O)c1cccc(OCc2c(C)noc2C)c1,active: -99.6%
20,O=C(NC1CC(=O)N(c2ccc(F)cc2)C1)c1ccc(S(=O)(=O)N2CCCCC2)cc1 (stereo unspecified),inconclusive: -46.6%
16,O=C(CCN1C(=O)/C(=C\C=C\c2ccccc2)SC1=S)Nc1ccccc1C(=O)O,inconclusive: -53.8%
1,Cc1cccc(-n2c(SCC(=O)Nc3ncc(Cl)cc3Cl)nc3ccccc32)c1,active: -99.3%
17,COc1ccccc1N1CCN(c2nc3c(C)cccn3c(=O)c2C=O)CC1,inconclusive: -41.2%
11,CCCC(c1nnnn1C1CCCC1)N1CCN(C(=O)c2ccco2)CC1 (stereo unspecified),inconclusive: -47%
8,COCCCNC(=O)c1cccc2c(-c3ccc(OC)cc3C)coc12,inconclusive: -49.1%
22,O=C(NC(NC(=S)Nc1ccccc1)C(Cl)(Cl)Cl)c1cccc(Cl)c1 (stereo unspecified),active: -78.5%
14,N#Cc1c(N)nc(SCc2ccncc2)c(C#N)c1-c1cccs1,inconclusive: -47%
12,O=S(=O)(Nc1ccc2c3c(cccc13)CC2)c1ccc(F)cc1,active: -61.1%
19,COc1ccc(-c2cn[nH]c2-c2ccc(OC)cc2)cc1,inconclusive: -43.1%
7,CCC(C(=O)NC1CCCCCC1)c1ccccc1 (stereo unspecified),inconclusive: -49%

# Some of the entries so far, with bars between the fields.
row | SMILES | activity change, negative = inhibition
3 | Cc1ccc(/C=C2\SC(=S)N(Cc3ccccc3)C2=O)o1 | inconclusive: -48.5%
4 | Cc1ccc(N2CC(c3nc4ccccc4n3C)CC2=O)cc1C (stereo unspecified) | inconclusive: -42.3%

# The list goes on:

row,SMILES,"activity change, negative = inhibition"
1,O=C(Nc1ccc(Cl)cn1)C1CCN(c2ncnc3c2nc2n3CCCCC2)CC1,active: -86.3%
2,CC[C@H]1c2[nH]c3ccccc3c2C[C@@H]2C(=O)N(c3ccc(F)cc3)C(=O)N21,inconclusive: -49.8%
3,CCOc1ccc(C(=O)N2CCn3c2nc2ccccc23)cc1,inconclusive: -44.7%
4,CS(=O)(=O)c1ccc(S(=O)CC(=O)OCc2ccccc2)c([N+](=O)[O-])c1 (stereo unspecified),active: -101%
5,O=C(NCCN1CCN(Cc2ccccc2)CC1)c1ccc(CS(=O)(=O)c2c(Cl)cccc2Cl)o1,inconclusive: -43.5%
6,O=C(O)c1ccc(CN2CCCCC2)o1,active: -68%
7,C=CCn1c(Oc2ccccc2F)nc2c1c(=O)n(C)c(=O)n2C,inconclusive: -59.7%
8,COc1ccc(NC(=O)CN2C(=O)CSC(C)C2=O)c(OC)c1 (stereo unspecified),inconclusive: -47.8%
9,CC(C)CNC(=O)C(=O)NN=C1CCCCCC1,inconclusive: -55.6%
10,N#CC(C#N)=CN=c1ccn(Cc2ccc(Cl)cc2Cl)cc1,active: -94.3%
11,Cn1nccc1C(=O)NC1CCCc2c1cnn2-c1ccc(F)cc1F (stereo unspecified),active: -81.5%
12,CCOC(=O)C1(Cc2ccccc2)CCN(Cc2nccn2CC)CC1,inconclusive: -50.2%
13,OCCNc1nc2ccccc2n1-c1ncnc2sc3c(c12)CCC3,inconclusive: -45.6%
14,Cc1ccccc1NC(=O)Cc1nc(COC(=O)C(C)(C)Oc2ccc(Cl)cc2)cs1,inconclusive: -47.9%
15,CCCCCc1ccc(-c2cn(CCc3c[nH]c4ccccc34)nn2)cc1,active: -60.8%
16,CCOc1ccc(CN2CCc3nc(N4CCN(c5ccccc5OC)CC4)ncc3C2)cc1OC,inconclusive: -41.2%
17,CC(C)(C)OC(=O)N1CCC(c2c(C(=O)NCc3cccc(Cl)c3)cnn2-c2ccc(F)cc2)CC1,inactive: -3.02%
18,O=C(NCc1cc(C(F)(F)F)cc(C(F)(F)F)c1)c1cc(-c2cc(F)ccc2OCC2CCCO2)n[nH]1 (stereo unspecified),inactive: -1.48%
19,CCc1ccc(C(=O)C(C)OC(=O)C2COc3ccccc3O2)cc1 (stereo unspecified),active: -98%
20,Cc1cc(C)[n+](C)n1CC(O)Cn1c2ccccc2c2ccccc21 (stereo unspecified),inconclusive: -48.4%
21,O=[N+]([O-])c1ccc(COc2ccc(CN3CCCC3)cc2)cc1,inactive: -7.63%
22,O=C(NCc1cccnc1)C(=O)NCC(c1ccco1)N1CCN(c2ccc(F)cc2)CC1 (stereo unspecified),inconclusive: -53.8%

row,SMILES,"activity change, negative = inhibition"
1,ClCCN(CCCl)c1ccc(C2=NCCc3ccccc32)cc1,active: -73.7%
2,COc1ccccc1CNC(=O)N/C=C/c1ccc(Cl)cc1,inactive: -19.8%
3,Cc1ccc(S(=O)(=O)Nc2ccc3c(c2)ncn3C(C)(C)C)cc1,inconclusive: -47.6%
4,Cn1c(-c2ccsc2)c(-c2cccs2)c2cc(-c3ccc4cc[nH]c4c3)ccc21,inconclusive: -49.6%
5,O=c1c2ccccc2sn1-c1cc(S(=O)(=O)N2CCOCC2)ccc1N1CCOCC1,inconclusive: -46.9%
6,CC(C)NC(=O)NC(=O)COC(=O)c1cc[n+]([O-])cc1,inactive: 2.92%
7,O=C(NC1CCCc2ccccc21)c1cc(Cl)ccn1 (stereo unspecified),inconclusive: -46.3%
8,C/C(=N\NC(=O)c1ccc(O)cc1)c1cc2ccccc2o1,inconclusive: -46.8%
9,CCCn1ncc([C@@H]2C[C@H]3CN(Cc4cccc(Cl)c4)C(=O)[C@]34CCCN24)c1C,inactive: -32.7%
10,O=C(NN=Cc1c[nH]c2ccccc12)NN=Cc1c[nH]c2ccccc12,inconclusive: -44%
11,OCC1(CCOc2ccccc2)CCN(Cc2ccc3c(c2)OCCO3)CC1,inactive: -13.7%
12,O=C1/C(=C/C=C/c2ccccc2)Oc2c1ccc(O)c2CN1CCN(CCO)CC1,inactive: 0%
13,COc1ccc(S(=O)(=O)N2CCC(C(=O)NCCC3=CCCCC3)CC2)cc1OC,inconclusive: -57.4%
14,O=C(CCN1C(=O)/C(=C/c2ccccc2)SC1=S)NC1CCS(=O)(=O)C1 (stereo unspecified),inconclusive: -45.3%
15,COc1ccc(N(C)S(=O)(=O)c2cccc(C(=O)Nc3nc4ccccc4[nH]3)c2)cc1,inconclusive: -59.9%
16,Cc1ccccc1N(C(=O)Cc1cccs1)C(C(=O)NC1CCCCC1)c1cn(C)nc1C (stereo unspecified),inconclusive: -53.4%
17,O=C(Nc1ccc2c(c1)OCO2)c1cc(C2CCCCN2C(=O)c2ccc3c(c2)CCO3)on1 (stereo unspecified),inconclusive: -42.9%
18,O=C1CN(C(=O)CN2C(=O)NC3(CCCCC3)C2=O)c2ccccc2N1,inconclusive: -50.3%
19,O=C1/C(=C/c2ccc(O)c([N+](=O)[O-])c2)SC(=S)N1Cc1ccccc1,active: -60.9%
20,O=C(Nc1ccc(Cl)cn1)c1cc2c(s1)-c1ccccc1OC2,inconclusive: -43.7%
